# Article doi:10.1101/2023.06.17.545446
# These are yes or no findings as the source states them, for the method shown. Some binding calls cover weakened binding; strength is not graded here.
# Target: multidrug efflux transporter AcrB (E. coli) (UniProt P31224)
# Assay: cryo-EM structure
substance,measurement,value
multidrug efflux transporter AcrB (from UniProt P31224 1-1049),binding,binds
